PubChem BioAssay AID1259405, NCATS, 2018
The whole screen tested about 50,000 reagents; shown is a part drawn at random. About 4,000 of them (8%) count as active. 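Mouse siRNA library applied to hamster cells; one well for each siRNA.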 Reagents against one gene are numbered here.

- Screen: 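Silenced genes that increase secreted GFP made by CHO cells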 (primary screen)
- System: Chinese hamster CHO-K1 ovary cells with stable secreted eGFP expression
- Reagents: single siRNA against mouse genes, 0.8 pmol siRNA per well (2 µl of 400 nM stock)
- Duration: 3 days
- Measured: 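Percent of the per-plate non-targeting control median for intracellular GFP per well by laser scanning cytometry and for cell viability by ATP luminescence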
- Direction: GFP, % of control: higher = more GFP per well, higher productivity; viability (ATP), % of control: higher = more viable cells (more ATP)
- Rule for the call: 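Called active when intracellular GFP, relative to negative control, is at or above 120%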

Lmntd1 #1
- GFP, % of control: 63.1
- viability (ATP), % of control: 60.6
- activity call: inactive

Lmntd1 #2
- GFP, % of control: 67
- viability (ATP), % of control: 80
- activity call: inactive

Lmntd1 #3
- GFP, % of control: 59.3
- viability (ATP), % of control: 72
- activity call: inactive

Fhod3 #1
- GFP, % of control: 56.6
- viability (ATP), % of control: 61.7
- activity call: inactive

Fhod3 #2
- GFP, % of control: 60.4
- viability (ATP), % of control: 64.8
- activity call: inactive

Fhod3 #3
- GFP, % of control: 89.8
- viability (ATP), % of control: 53.3
- activity call: inactive

Gsta4 #1
- GFP, % of control: 87.5
- viability (ATP), % of control: 92.6
- activity call: inactive

Gsta4 #2
- GFP, % of control: 83.7
- viability (ATP), % of control: 68.6
- activity call: inactive

Gsta4 #3
- GFP, % of control: 64.8
- viability (ATP), % of control: 59.5
- activity call: inactive

Nxf3 #1
- GFP, % of control: 81.1
- viability (ATP), % of control: 83.1
- activity call: inactive

Nxf3 #2
- GFP, % of control: 69.6
- viability (ATP), % of control: 94.6
- activity call: inactive

Or52r1 #1
- GFP, % of control: 130
- viability (ATP), % of control: 77.6
- activity call: active

Or52r1 #2
- GFP, % of control: 76.7
- viability (ATP), % of control: 77.1
- activity call: inactive

Or52r1 #3
- GFP, % of control: 78.6
- viability (ATP), % of control: 125
- activity call: inactive

Cxcl13 #1
- GFP, % of control: 37.5
- viability (ATP), % of control: 32.9
- activity call: inactive

Cxcl13 #2
- GFP, % of control: 79.3
- viability (ATP), % of control: 73.5
- activity call: inactive

Cxcl13 #3
- GFP, % of control: 29.6
- viability (ATP), % of control: 53.7
- activity call: inactive

Optc #1
- GFP, % of control: 62.9
- viability (ATP), % of control: 52.6
- activity call: inactive

Optc #2
- GFP, % of control: 63.8
- viability (ATP), % of control: 76.6
- activity call: inactive

Optc #3
- GFP, % of control: 55.3
- viability (ATP), % of control: 70.3
- activity call: inactive

Pla2g4b #1
- GFP, % of control: 99.7
- viability (ATP), % of control: 68.5
- activity call: inactive

Pla2g4b #2
- GFP, % of control: 131
- viability (ATP), % of control: 103
- activity call: active

Pla2g4b #3
- GFP, % of control: 93.9
- viability (ATP), % of control: 104
- activity call: inactive

Serpina10 #1
- GFP, % of control: 57.5
- viability (ATP), % of control: 80.3
- activity call: inactive

Serpina10 #2
- GFP, % of control: 61.6
- viability (ATP), % of control: 69.7
- activity call: inactive

Serpina10 #3
- GFP, % of control: 89.5
- viability (ATP), % of control: 64.2
- activity call: inactive

Mrgprg #1
- GFP, % of control: 191
- viability (ATP), % of control: 107
- activity call: active

Mrgprg #2
- GFP, % of control: 76
- viability (ATP), % of control: 68.5
- activity call: inactive

Mrgprg #3
- GFP, % of control: 63.8
- viability (ATP), % of control: 58.7
- activity call: inactive

Tmc8 #1
- GFP, % of control: 95.4
- viability (ATP), % of control: 111
- activity call: inactive

Tmc8 #2
- GFP, % of control: 92.5
- viability (ATP), % of control: 86.2
- activity call: inactive

Tmc8 #3
- GFP, % of control: 104
- viability (ATP), % of control: 82
- activity call: inactive

Ccdc57 #1
- GFP, % of control: 73.3
- viability (ATP), % of control: 63.4
- activity call: inactive

Ccdc57 #2
- GFP, % of control: 91.6
- viability (ATP), % of control: 87.5
- activity call: inactive

Ccdc57 #3
- GFP, % of control: 73.7
- viability (ATP), % of control: 78.4
- activity call: inactive

Smad9 #1
- GFP, % of control: 39.1
- viability (ATP), % of control: 63.1
- activity call: inactive

Smad9 #2
- GFP, % of control: 83.2
- viability (ATP), % of control: 77
- activity call: inactive

Smad9 #3
- GFP, % of control: 149
- viability (ATP), % of control: 39.6
- activity call: active

Znhit1 #1
- GFP, % of control: 49.3
- viability (ATP), % of control: 42.1
- activity call: inactive

Znhit1 #2
- GFP, % of control: 54.4
- viability (ATP), % of control: 54.1
- activity call: inactive

Znhit1 #3
- GFP, % of control: 91.1
- viability (ATP), % of control: 95.3
- activity call: inactive

Ang2 #1
- GFP, % of control: 82.5
- viability (ATP), % of control: 83.8
- activity call: inactive

Ang2 #2
- GFP, % of control: 66.4
- viability (ATP), % of control: 56.6
- activity call: inactive

Ang2 #3
- GFP, % of control: 92.4
- viability (ATP), % of control: 95.2
- activity call: inactive

Kcns1 #1
- GFP, % of control: 37.9
- viability (ATP), % of control: 37.5
- activity call: inactive

Kcns1 #2
- GFP, % of control: 136
- viability (ATP), % of control: 84.2
- activity call: active

Plcz1 #1
- GFP, % of control: 50
- viability (ATP), % of control: 73.9
- activity call: inactive

Plcz1 #2
- GFP, % of control: 121
- viability (ATP), % of control: 130
- activity call: active

Plcz1 #3
- GFP, % of control: 39.6
- viability (ATP), % of control: 22.6
- activity call: inactive

Stbd1 #1
- GFP, % of control: 64.5
- viability (ATP), % of control: 62.7
- activity call: inactive

Stbd1 #2
- GFP, % of control: 99
- viability (ATP), % of control: 55.1
- activity call: inactive

Stbd1 #3
- GFP, % of control: 112
- viability (ATP), % of control: 94.5
- activity call: inactive

4 of these entries in another layout:
Gene	siRNA no.	GFP, % of control	viability (ATP), % of control	activity call
Mrgprg	1	191	107	active
Mrgprg	2	76	68.5	inactive
Mrgprg	3	63.8	58.7	inactive
Tmc8	1	95.4	111	inactive
